The source of these data is article PMC6428263.

Amino acid sequences for entries named in this document (tags omitted).
UniProt Q13425: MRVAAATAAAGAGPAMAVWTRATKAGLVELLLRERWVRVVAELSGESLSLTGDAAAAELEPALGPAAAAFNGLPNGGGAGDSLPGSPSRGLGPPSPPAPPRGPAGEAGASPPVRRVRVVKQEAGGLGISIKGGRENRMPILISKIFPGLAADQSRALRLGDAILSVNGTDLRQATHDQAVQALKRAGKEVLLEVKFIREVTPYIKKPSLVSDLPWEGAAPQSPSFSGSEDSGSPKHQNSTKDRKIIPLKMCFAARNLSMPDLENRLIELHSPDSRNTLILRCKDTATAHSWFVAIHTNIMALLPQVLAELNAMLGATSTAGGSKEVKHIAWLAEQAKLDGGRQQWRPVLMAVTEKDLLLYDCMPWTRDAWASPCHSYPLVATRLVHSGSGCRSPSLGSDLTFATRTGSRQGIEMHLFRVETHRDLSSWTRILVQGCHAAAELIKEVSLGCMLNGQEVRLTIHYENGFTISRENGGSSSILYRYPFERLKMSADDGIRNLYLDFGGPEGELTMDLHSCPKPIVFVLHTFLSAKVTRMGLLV
UniProt Q96QZ7: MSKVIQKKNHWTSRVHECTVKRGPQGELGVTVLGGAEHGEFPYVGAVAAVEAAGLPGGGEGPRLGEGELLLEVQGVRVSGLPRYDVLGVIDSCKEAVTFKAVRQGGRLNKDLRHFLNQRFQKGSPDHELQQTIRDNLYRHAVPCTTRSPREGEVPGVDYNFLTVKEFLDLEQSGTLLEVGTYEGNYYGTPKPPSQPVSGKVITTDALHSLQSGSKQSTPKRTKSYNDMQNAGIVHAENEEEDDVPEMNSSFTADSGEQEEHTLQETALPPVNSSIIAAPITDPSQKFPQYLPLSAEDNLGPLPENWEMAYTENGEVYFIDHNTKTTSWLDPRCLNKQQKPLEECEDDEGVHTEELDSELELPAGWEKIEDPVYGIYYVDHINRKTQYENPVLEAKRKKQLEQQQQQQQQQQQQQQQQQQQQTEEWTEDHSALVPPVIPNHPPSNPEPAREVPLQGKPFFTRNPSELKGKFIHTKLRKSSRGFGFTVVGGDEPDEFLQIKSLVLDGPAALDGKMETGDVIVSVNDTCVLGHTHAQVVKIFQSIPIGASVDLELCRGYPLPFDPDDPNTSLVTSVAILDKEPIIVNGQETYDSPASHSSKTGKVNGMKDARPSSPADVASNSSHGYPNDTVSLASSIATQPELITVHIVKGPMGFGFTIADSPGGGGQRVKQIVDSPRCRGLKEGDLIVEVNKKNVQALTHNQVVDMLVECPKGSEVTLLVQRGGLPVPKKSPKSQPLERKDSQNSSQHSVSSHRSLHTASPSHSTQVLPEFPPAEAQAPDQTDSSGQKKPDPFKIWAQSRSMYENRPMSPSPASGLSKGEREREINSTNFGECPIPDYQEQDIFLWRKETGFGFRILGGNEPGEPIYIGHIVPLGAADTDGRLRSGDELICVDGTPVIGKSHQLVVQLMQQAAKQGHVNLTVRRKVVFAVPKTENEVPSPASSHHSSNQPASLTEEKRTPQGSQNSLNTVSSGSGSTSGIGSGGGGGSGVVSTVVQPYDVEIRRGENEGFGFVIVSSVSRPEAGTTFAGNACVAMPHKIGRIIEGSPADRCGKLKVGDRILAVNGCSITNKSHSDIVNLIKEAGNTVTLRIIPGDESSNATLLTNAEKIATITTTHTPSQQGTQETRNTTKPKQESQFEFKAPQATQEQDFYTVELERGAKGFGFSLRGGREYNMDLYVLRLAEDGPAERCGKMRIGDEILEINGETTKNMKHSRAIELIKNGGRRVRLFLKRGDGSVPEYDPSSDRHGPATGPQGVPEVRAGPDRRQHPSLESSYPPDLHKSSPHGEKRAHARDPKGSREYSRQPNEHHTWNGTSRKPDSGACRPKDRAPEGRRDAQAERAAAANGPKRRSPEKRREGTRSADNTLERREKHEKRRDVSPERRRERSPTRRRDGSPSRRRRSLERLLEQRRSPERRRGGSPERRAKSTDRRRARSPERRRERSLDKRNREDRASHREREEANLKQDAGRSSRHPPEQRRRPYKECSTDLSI
UniProt Q14160: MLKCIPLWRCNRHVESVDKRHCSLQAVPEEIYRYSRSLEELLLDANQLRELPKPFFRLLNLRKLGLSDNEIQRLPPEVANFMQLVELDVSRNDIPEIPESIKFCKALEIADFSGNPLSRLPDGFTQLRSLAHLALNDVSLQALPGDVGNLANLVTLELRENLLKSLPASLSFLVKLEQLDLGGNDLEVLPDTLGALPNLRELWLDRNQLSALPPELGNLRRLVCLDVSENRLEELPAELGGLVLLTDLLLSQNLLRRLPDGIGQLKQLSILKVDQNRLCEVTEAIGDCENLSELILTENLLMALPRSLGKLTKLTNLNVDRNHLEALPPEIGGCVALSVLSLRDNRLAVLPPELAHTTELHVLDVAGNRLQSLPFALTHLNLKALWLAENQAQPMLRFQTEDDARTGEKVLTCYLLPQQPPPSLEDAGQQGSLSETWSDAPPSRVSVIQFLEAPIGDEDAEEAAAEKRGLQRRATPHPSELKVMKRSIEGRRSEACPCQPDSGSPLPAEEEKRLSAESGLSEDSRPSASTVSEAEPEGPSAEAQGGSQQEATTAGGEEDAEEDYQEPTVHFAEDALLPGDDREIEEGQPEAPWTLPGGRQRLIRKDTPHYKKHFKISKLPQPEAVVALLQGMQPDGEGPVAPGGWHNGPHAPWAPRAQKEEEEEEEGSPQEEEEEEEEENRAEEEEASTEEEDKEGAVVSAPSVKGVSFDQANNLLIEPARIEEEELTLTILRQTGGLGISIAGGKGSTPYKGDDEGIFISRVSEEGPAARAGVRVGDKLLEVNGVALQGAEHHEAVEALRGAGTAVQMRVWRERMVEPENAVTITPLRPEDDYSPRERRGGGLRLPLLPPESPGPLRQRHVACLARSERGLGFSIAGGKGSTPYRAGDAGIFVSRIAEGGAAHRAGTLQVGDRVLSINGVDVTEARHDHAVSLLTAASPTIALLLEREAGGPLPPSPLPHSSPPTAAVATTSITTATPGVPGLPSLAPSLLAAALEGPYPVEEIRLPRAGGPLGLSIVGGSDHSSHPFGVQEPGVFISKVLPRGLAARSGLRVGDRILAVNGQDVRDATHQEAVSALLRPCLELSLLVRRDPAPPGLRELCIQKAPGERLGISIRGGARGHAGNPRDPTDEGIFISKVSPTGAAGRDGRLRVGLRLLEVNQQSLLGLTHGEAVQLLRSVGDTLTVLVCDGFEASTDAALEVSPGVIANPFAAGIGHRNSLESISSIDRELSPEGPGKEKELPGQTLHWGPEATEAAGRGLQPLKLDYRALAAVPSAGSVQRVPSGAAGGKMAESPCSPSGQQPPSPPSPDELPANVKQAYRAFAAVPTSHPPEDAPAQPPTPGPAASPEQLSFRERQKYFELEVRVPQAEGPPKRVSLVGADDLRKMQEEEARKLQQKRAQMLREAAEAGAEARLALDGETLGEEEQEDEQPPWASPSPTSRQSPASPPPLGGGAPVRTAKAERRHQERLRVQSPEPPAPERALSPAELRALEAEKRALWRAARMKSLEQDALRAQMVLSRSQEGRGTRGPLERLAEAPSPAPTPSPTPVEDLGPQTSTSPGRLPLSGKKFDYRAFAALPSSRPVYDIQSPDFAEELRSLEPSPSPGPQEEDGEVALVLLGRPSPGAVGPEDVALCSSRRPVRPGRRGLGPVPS

These are yes or no findings as the source states them, for the method shown. In cells and extracts the contact can be indirect. These calls come from enrichment with a bait or labelling near it, and not all partners need be listed.

B1: alternative NF-κB precursor protein p100 (protein, UniProt Q00653-1 1-900)
chain: MESCYNPGLDGIIEYDDFKLNSSIVEPKEPAPETADGPYLVIVEQPKQRGFRFRYGCEGPSHGGLPGASSEKGRKTYPTVKICNYEGPAKIEVDLVTHSDPPRAHAHSLVGKQCSELGICAVSVGPKDMTAQFNNLGVLHVTKKNMMGTMIQKLQRQRLRSRPQGLTEAEQRELEQEAKELKKVMDLSIVRLRFSAFLRASDGSFSLPLKPVISQPIHDSKSPGASNLKISRMDKTAGSVRGGDEVYLLCDKVQKDDIEVRFYEDDENGWQAFGDFSPTDVHKQYAIVFRTPPYHKMKIERPVTVFLQLKRKRGGDVSDSKQFTYYPLVEDKEEVQRKRRKALPTFSQPFGGGSHMGGGSGGAAGGYGGAGGGGSLGFFPSSLAYSPYQSGAGPMGCYPGGGGGAQMAATVPSRDSGEEAAEPSAPSRTPQCEPQAPEMLQRAREYNARLFGLAQRSARALLDYGVTADARALLAGQRHLLTAQDENGDTPLHLAIIHGQTSVIEQIVYVIHHAQDLGVVNLTNHLHQTPLHLAVITGQTSVVSFLLRVGADPALLDRHGDSAMHLALRAGAGAPELLRALLQSGAPAVPQLLHMPDFEGLYPVHLAVRARSPECLDLLVDSGAEVEATERQGGRTALHLATEMEELGLVTHLVTKLRANVNARTFAGNTPLHLAAGLGYPTLTRLLLKAGADIHAENEEPLCPLPSPPTSDSDSDSEGPEKDTRSSFRGHTPLDLTCSTKVKTLLLNAAQNTMEPPLTPPSPAGPGLSLGDTALQNLEQLLDGPEAQGSWAELAERLGLRSLVDTYRQTTSPSGSLLRSYELAGGDLAGLLEALSDMGLEEGVRLLRGPETRDKLPSTAEVKEDSAYGSQSVEQEAEKLGPPPEPPGGLCHGHPQPQVH
B2: Lin-7 homolog C (protein, UniProt Q9NUP9 1-197)
chain: MAALGEPVRLERDICRAIELLEKLQRSGEVPPQKLQALQRVLQSEFCNAVREVYEHVYETVDISSSPEVRANATAKATVAAFAASEGHSHPRVVELPKTEEGLGFNIMGGKEQNSPIYISRIIPGGIADRHGGLKRGDQLLSVNGVSVEGEHHEKAVELLKAAQGKVKLVVRYTPKVLEEMESRFEKMRSAKRRQQT
B3: Beta-1-syntrophin (protein, UniProt Q13884 1-538)
chain: MAVAAAAAAAGPAGAGGGRAQRSGLLEVLVRDRWHKVLVNLSEDALVLSSEEGAAAYNGIGTATNGSFCRGAGAGHPGAGGAQPPDSPAGVRTAFTDLPEQVPESISNQKRGVKVLKQELGGLGISIKGGKENKMPILISKIFKGLAADQTQALYVGDAILSVNGADLRDATHDEAVQALKRAGKEVLLEVKYMREATPYVKKGSPVSEIGWETPPPESPRLGGSTSDPPSSQSFSFHRDRKSIPLKMCYVTRSMALADPENRQLEIHSPDAKHTVILRSKDSATAQAWFSAIHSNVNDLLTRVIAEVREQLGKTGIAGSREIRHLGWLAEKVPGESKKQWKPALVVLTEKDLLIYDSMPRRKEAWFSPVHTYPLLATRLVHSGPGKGSPQAGVDLSFATRTGTRQGIETHLFRAETSRDLSHWTRSIVQGCHNSAELIAEISTACTYKNQECRLTIHYENGFSITTEPQEGAFPKTIIQSPYEKLKMSSDDGIRMLYLDFGGKDGEIQLDLHSCPKPIVFIIHSFLSAKITRLGLVA

The assay deals with S-tag Tax-1 (HTLV-1) (UniProt P03409). In words: affinity purification with mass spectrometry; S-tag pull-down on S-agarose overnight from lysates (passive lysis buffer) of HEK293T cells transfected with S-tag constructs; beads washed four times with RIPA lysis buffer; whole gel lanes analysed by capillary LC-MS/MS.
Regarding “Beta-2-syntrophin (from UniProt Q13425 1-540)”, the binding result was “binds”. Take MAGI1 (from UniProt Q96QZ7 1-1491): the binding result was “binds”. Turning to Scribble (from UniProt Q14160 1-1655), the binding result was “binds”. With B1, the binding entry is reported as “binds”. With B2, the binding result is “binds”. With B3, the binding result is listed as “binds”.
